According to patent US20070269427A1:
No constants are given. Whether binding was seen depends on the method and setting. Some entries that bind do so weakly or less than the wild type.

Protein sequences, listed by entry. Tags and fused reporters are not part of them. Residues count along the entry.
UniProt P07722, residues 20-516: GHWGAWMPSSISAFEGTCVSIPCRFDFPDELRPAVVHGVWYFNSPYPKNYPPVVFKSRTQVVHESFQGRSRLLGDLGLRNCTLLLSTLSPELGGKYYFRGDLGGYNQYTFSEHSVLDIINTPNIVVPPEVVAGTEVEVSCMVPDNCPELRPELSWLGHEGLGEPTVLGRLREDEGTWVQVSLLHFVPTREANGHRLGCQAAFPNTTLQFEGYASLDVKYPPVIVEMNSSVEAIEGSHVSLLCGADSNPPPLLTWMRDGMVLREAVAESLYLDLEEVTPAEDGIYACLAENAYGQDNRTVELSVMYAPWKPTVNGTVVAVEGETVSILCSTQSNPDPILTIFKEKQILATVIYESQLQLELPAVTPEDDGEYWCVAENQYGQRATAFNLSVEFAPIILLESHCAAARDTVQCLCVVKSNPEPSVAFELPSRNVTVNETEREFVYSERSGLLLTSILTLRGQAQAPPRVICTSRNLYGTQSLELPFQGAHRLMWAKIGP

How the values were obtained:
[1] = target: rat MAG-Fc fusion protein (R&D systems; 538-MG) (rat; human) (UniProt P07722); experiment: ELISA on coated rat MAG-Fc (FIG. 3)
[2] = target: rat MAG-Fc fusion protein (R&D systems; 538-MG) (rat; human) (UniProt P07722); experiment: direct binding ELISA on coated rat MAG-Fc, culture supernatant
[3] = target: rat MAG-Fc fusion protein (R&D systems; 538-MG) (rat; human) (UniProt P07722); experiment: ELISA on coated rat MAG-Fc, CHO culture supernatant, detected with anti-human kappa

Measured: binding

B1: Chimeric anti-MAG antibody (mouse/human chimeric anti-MAG antibody) (antibody, human IgG1, kappa, V domains shown)
VH: EIQLVQSGPELKKPGETNKISCKASGYTFTNYGMNWVKQAPGKGLKWMGWINTYTGEPTYADDFTGRFAFSLETSASTAYLQISNLKNEDTATYFCARNPINYYGINYEGYVMDYWGQGTLVTVSS
VL: NIMMTQSPSSLAVSAGEKVTMSCKSSHSVLYSSNQKNYLAWYQQKPGQSPKLLIYWASTRESGVPDRFTGSGSGTDFTLTIINVHTEDLAVYYCHQYLSSLTFGTGTKLEIKR
binds: all assays above
